Laboratory results as given in the supplement of paper PMC10849652.
This is one part of the list.

By UniProt entry, the sequences of proteins in these tests, tags left out. Where a name states a change or a piece, a line headed by the entry shows the natural chain unless it says otherwise.
UniProt Q6UWE0: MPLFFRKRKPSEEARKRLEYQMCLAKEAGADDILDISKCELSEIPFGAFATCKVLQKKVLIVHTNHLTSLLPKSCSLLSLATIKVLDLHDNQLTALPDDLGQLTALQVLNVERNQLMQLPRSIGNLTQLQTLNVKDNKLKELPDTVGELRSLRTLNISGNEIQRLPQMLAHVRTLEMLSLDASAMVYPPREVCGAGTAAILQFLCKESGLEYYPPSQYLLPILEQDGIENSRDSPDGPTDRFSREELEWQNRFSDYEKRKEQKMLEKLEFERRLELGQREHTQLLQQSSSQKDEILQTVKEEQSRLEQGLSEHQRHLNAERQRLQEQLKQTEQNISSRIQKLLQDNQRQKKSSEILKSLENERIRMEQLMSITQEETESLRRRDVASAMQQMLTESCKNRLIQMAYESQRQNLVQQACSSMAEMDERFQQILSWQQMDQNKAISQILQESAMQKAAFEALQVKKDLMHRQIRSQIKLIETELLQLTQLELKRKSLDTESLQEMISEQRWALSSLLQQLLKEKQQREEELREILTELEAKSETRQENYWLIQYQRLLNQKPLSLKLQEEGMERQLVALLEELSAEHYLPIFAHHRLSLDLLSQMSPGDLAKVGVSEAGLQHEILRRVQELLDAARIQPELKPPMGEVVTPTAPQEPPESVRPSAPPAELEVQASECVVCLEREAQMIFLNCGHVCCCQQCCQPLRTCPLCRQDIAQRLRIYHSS
UniProt Q99759: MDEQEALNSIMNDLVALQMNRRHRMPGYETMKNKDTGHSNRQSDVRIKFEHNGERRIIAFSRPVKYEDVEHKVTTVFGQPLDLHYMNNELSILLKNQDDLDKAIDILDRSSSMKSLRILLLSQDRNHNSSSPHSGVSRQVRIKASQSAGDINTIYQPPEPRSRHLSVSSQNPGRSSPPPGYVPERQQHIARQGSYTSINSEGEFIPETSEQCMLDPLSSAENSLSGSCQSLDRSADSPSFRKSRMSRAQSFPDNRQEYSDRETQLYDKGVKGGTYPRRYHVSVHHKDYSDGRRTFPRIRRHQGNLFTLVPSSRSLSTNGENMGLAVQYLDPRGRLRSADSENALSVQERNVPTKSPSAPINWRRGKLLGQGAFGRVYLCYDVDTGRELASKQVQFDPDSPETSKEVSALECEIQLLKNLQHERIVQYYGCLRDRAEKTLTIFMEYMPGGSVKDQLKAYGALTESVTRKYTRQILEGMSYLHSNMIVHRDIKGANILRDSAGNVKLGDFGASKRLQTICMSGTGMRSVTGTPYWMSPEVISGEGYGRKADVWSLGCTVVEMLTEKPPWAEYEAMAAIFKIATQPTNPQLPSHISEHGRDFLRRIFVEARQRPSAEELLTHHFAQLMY
UniProt P20645: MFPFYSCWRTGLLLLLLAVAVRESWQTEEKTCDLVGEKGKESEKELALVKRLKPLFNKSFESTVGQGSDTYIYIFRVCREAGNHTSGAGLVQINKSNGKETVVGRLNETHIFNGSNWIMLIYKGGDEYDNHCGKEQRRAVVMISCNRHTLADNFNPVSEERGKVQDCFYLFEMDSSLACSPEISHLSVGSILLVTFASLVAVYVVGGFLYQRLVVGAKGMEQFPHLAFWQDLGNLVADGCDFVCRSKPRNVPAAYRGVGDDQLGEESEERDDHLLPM
UniProt Q5SRI9: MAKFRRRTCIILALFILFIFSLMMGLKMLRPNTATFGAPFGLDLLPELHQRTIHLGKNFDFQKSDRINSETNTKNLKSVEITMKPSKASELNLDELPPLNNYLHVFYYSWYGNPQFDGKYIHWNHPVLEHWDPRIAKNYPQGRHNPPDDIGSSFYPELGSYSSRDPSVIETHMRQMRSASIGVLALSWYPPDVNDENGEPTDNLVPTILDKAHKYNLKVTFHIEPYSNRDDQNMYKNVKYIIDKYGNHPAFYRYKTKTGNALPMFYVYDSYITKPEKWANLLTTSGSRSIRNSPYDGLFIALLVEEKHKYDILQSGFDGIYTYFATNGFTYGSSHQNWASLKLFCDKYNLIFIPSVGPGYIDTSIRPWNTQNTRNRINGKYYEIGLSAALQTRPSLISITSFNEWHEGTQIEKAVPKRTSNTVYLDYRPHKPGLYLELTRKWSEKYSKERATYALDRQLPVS
UniProt Q7L5Y9: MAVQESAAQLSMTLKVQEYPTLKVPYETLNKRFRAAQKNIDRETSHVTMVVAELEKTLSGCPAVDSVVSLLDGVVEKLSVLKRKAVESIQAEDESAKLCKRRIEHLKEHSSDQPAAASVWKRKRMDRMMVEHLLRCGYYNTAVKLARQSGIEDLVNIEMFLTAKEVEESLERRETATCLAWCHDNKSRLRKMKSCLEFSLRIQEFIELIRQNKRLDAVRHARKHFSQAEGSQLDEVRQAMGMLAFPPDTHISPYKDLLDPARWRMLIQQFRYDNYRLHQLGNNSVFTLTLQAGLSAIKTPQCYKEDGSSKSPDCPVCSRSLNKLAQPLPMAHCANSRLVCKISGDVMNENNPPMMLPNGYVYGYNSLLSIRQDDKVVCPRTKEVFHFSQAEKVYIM
UniProt P28482, whole entry, looked up: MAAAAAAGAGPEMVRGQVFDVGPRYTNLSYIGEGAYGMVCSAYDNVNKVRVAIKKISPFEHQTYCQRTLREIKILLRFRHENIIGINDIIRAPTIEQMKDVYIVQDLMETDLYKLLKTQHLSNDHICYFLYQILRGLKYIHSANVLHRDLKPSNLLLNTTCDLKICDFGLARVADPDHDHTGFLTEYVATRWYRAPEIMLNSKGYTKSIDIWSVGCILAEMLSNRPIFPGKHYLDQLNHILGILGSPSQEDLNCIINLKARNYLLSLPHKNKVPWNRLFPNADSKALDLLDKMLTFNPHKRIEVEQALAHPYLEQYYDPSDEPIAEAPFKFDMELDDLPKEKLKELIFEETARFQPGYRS
UniProt Q9Y333: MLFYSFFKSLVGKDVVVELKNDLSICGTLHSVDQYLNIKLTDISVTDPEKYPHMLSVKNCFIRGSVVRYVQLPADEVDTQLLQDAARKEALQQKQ
UniProt P62312: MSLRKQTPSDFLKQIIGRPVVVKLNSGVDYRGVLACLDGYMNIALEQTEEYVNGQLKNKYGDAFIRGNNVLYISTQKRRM
UniProt Q9NX47: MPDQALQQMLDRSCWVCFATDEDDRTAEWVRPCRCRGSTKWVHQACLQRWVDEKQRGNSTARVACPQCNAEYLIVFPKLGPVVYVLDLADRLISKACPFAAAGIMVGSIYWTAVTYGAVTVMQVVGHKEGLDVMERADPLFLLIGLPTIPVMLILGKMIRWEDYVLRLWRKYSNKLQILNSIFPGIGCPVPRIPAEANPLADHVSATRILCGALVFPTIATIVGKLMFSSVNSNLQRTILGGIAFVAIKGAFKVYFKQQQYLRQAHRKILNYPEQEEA
UniProt Q9NU23: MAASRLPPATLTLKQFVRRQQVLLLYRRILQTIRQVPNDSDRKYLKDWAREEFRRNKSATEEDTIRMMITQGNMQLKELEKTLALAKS
UniProt Q15013: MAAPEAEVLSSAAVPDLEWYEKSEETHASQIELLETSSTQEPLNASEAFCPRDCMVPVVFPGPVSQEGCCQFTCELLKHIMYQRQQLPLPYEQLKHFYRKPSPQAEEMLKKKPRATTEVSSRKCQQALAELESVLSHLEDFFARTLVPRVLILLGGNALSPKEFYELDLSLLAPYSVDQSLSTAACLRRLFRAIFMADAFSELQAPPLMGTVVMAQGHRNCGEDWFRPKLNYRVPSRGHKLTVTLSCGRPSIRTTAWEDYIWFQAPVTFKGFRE
UniProt Q7Z3D4: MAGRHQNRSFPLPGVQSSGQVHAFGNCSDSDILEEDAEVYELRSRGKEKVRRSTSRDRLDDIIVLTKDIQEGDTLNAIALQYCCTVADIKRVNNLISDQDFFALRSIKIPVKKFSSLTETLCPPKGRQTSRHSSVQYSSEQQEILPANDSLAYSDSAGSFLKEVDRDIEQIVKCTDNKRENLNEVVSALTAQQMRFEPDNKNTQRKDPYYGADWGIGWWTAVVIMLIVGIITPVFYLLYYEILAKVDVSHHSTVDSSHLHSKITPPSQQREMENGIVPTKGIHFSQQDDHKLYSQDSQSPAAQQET
UniProt Q9Y4Z0: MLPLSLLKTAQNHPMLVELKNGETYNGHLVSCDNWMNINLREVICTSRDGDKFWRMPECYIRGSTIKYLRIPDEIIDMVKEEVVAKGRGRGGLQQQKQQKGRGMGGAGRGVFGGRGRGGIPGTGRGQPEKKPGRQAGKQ
UniProt Q96S90: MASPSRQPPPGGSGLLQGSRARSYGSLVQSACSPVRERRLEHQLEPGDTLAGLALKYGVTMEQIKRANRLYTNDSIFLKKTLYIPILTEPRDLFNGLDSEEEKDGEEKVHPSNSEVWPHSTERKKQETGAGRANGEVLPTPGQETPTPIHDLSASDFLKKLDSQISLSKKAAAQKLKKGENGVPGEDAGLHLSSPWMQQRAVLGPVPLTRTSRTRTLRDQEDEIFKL
UniProt Q7L1W4: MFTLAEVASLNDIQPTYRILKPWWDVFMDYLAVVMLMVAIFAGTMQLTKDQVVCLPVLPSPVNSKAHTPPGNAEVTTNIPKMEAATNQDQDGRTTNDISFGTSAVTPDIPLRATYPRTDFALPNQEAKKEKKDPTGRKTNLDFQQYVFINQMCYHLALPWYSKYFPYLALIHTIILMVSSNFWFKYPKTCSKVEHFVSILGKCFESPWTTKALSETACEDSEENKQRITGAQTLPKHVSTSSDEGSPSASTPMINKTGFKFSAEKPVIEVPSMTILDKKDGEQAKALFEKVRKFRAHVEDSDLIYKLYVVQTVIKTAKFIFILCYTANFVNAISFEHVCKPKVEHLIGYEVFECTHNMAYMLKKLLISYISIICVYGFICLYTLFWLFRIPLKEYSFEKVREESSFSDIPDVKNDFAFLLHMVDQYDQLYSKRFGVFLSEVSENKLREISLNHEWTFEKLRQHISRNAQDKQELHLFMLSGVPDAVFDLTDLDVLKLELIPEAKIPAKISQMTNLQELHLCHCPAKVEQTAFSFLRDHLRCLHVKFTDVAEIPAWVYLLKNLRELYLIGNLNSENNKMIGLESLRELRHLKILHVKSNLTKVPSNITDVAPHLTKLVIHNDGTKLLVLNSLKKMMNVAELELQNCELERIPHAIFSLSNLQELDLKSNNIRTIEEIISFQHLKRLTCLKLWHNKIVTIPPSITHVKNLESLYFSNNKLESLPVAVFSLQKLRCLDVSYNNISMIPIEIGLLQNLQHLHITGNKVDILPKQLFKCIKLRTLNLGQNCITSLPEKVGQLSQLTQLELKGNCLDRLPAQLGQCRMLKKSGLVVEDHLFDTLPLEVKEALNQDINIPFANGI
UniProt O60476: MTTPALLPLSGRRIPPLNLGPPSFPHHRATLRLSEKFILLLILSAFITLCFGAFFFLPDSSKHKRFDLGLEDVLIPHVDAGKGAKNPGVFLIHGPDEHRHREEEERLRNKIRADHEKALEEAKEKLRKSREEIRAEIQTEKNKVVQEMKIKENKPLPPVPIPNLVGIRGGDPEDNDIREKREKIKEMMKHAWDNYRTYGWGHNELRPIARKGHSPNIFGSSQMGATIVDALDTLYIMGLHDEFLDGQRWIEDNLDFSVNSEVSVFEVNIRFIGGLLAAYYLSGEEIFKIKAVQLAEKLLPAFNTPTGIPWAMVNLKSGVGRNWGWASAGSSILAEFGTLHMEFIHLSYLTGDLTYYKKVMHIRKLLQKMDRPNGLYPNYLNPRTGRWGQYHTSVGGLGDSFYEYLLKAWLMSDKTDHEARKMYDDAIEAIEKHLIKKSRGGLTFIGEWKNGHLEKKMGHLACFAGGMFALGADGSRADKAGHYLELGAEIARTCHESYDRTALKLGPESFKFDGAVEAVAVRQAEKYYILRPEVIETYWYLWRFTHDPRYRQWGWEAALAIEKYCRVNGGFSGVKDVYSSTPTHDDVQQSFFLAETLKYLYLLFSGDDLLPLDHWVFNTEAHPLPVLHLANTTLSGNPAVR
UniProt P43366: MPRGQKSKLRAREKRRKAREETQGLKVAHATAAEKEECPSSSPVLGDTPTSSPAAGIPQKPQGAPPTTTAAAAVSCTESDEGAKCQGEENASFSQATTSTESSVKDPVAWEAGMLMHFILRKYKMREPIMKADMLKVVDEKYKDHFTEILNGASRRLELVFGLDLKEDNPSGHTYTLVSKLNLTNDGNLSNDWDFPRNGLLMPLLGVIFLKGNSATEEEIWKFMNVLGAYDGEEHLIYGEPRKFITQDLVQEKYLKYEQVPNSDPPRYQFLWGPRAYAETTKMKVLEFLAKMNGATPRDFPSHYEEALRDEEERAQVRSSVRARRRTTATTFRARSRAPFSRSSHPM

Legend:
Test in all cases: log2 fold change, soluble protein after heating vs DMSO (PISA); higher = thermal stabilisation; K562 cells, 10 uM, 30 min; active = over 0.2 and 3.5 SD of the protein, either way, in both replicates (recomputed)
saracatinib = compound: CN1CCN(CCOc2cc(OC3CCOCC3)c3c(Nc4c(Cl)ccc5c4OCO5)ncnc3c2)CC1 [saracatinib]
In short: (§1)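 Quantification of soluble protein used TMTpro 16plex LC-MS/MS, with channel sums equalised. Samples were the supernatant after 21,000xg for 90 min of pooled aliquots from K562 cells (2×10^6 cells/mL) treated with 10 μM compound for 30 min, heated for 3 min over 48°C-58°C, and extracted in PBS with 0.5% NP-40 at 4°C. Values, from duplicates, describe thermal stability against control samples on a log2 fold-change scale.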

sotrastaurin = compound: CN1CCN(c2nc(C3=C(c4c[nH]c5ccccc45)C(=O)NC3=O)c3ccccc3n2)CC1 [sotrastaurin]
In short: as §1

alvocidib = compound: CN1CC[C@H](c2c(O)cc(O)c3c(=O)cc(-c4ccccc4Cl)oc23)[C@H](O)C1 [alvocidib]
In short: as §1

Tubastatin A = compound: CN1CCc2c(c3ccccc3n2Cc2ccc(C(=O)NO)cc2)C1 [Tubastatin A]
In short: as §1

[1] = compound: CNC(=O)C1=CC=CC=C1NC2=NC(=NC=C2Cl)NC3=C(C=C(C=C3)N4CCOCC4)OC
In short: as §1

defactinib = compound: CNC(=O)c1ccc(Nc2ncc(C(F)(F)F)c(NCc3nccnc3N(C)S(C)(=O)=O)n2)cc1 [defactinib]
In short: as §1

rucaparib = compound: CNCc1ccc(-c2[nH]c3cc(F)cc4c3c2CCNC4=O)cc1 [rucaparib]
In short: as §1

[2] = compound: CNc1nc(-c2ccc3c(N)n[nH]c3c2)cc(N2C[C@@H](C(=O)NC3CCCCC3)CC[C@H]2C)n1
In short: as §1

encorafenib = compound: COC(=O)N[C@@H](C)CNc1nccc(-c2cn(C(C)C)nc2-c2cc(Cl)cc(NS(C)(=O)=O)c2F)n1 [encorafenib]
In short: as §1

[3] = compound: COC(=O)[C@H](CCSC)NC(=O)C1=C(C=C(C=C1)NC[C@H](CS)N)C2=CC=CC=C2
In short: as §1

Measured: log2 fold change

MACF1 (UniProt H3BQK9)
inactive: saracatinib -0.126 | sotrastaurin -0.187 | alvocidib 0.02 | Tubastatin A -0.008 | [1] 0.052 | defactinib 0.106 | rucaparib 0.121 | [2] 0.077 | encorafenib 0.181 | [3] 0.024

LRSAM1 (UniProt Q6UWE0)
inactive: saracatinib -0.013 | sotrastaurin -0.012 | alvocidib -0.087 | Tubastatin A 0.024 | [1] 0.032 | defactinib -0.072 | rucaparib -0.001 | [2] -0.05 | encorafenib 0.022 | [3] -0.038

MAP3K3 isoform 2 (UniProt Q99759)
inactive: saracatinib -0.042 | sotrastaurin -0.192 | alvocidib -0.13 | Tubastatin A -0.094 | [1] -0.052 | defactinib -0.311 | rucaparib 0.138 | [2] 0.015 | encorafenib -0.093 | [3] -0.049

M6PR (UniProt P20645)
inactive: saracatinib 0.016 | sotrastaurin -0.005 | alvocidib -0.048 | Tubastatin A -0.071 | [1] 0.059 | defactinib -0.03 | rucaparib 0.026 | [2] -0.05 | encorafenib -0.059 | [3] 0.088

MAP3K2 (UniProt Q9Y2U5)
inactive: saracatinib -0.009 | sotrastaurin -0.012 | alvocidib -0.14 | Tubastatin A 0.003 | [1] -0.056 | defactinib -0.047 | rucaparib -0.217 | [2] 0.086 | encorafenib -0.109 | [3] -0.249

Reprinted from the entries so far (two entries):
M6PR (UniProt P20645)
inactive: saracatinib 0.016 | sotrastaurin -0.005 | alvocidib -0.048 | Tubastatin A -0.071 | [1] 0.059 | defactinib -0.03 | rucaparib 0.026 | [2] -0.05 | encorafenib -0.059 | [3] 0.088

MAP3K2 (UniProt Q9Y2U5)
inactive: saracatinib -0.009 | sotrastaurin -0.012 | alvocidib -0.14 | Tubastatin A 0.003 | [1] -0.056 | defactinib -0.047 | rucaparib -0.217 | [2] 0.086 | encorafenib -0.109 | [3] -0.249

The list goes on:

LYSMD2 (UniProt Q8IV50)
inactive: saracatinib 0.054 | sotrastaurin -0.013 | alvocidib -0.024 | Tubastatin A -0.019 | [1] -0.051 | defactinib -0.053 | rucaparib -0.001 | [2] -0.019 | encorafenib 0 | [3] -0.037

MAPRE2 (UniProt Q15555)
inactive: saracatinib 0 | sotrastaurin -0.089 | alvocidib -0.078 | Tubastatin A 0.047 | [1] -0.064 | defactinib -0.146 | rucaparib 0.133 | [2] 0.128 | encorafenib 0.083 | [3] -0.132

MANEA (UniProt Q5SRI9)
inactive: saracatinib -0.011 | sotrastaurin 0.011 | alvocidib 0.002 | Tubastatin A 0.124 | [1] 0.007 | defactinib -0.024 | rucaparib 0.021 | [2] 0.005 | encorafenib -0.044 | [3] -0.022

MAEA (UniProt Q7L5Y9)
inactive: saracatinib 0.018 | sotrastaurin -0.053 | alvocidib -0.028 | Tubastatin A 0.021 | [1] 0.006 | defactinib 0.023 | rucaparib 0.007 | [2] 0.002 | encorafenib 0.028 | [3] -0.015

MAP2K4 isoform 2 (UniProt P45985)
inactive: saracatinib 0.023 | sotrastaurin -0.005 | alvocidib -0.086 | Tubastatin A -0.033 | [1] -0.124 | defactinib -0.06 | rucaparib 0.107 | [2] -0.004 | encorafenib -0.014 | [3] 0.068

MAPK1 (UniProt P28482)
inactive: saracatinib 0.041 | sotrastaurin 0.012 | alvocidib -0.019 | Tubastatin A -0.011 | [1] -0.004 | defactinib -0.001 | rucaparib -0.05 | [2] -0.025 | encorafenib -0.018 | [3] 0.044

LRRFIP2 (UniProt Q9Y608)
inactive: saracatinib -0.001 | sotrastaurin -0.003 | alvocidib 0.039 | Tubastatin A 0.009 | [1] 0.013 | defactinib -0.039 | rucaparib -0.002 | [2] -0.017 | encorafenib -0.01 | [3] 0.014

LRRC8A (UniProt Q8IWT6)
inactive: saracatinib -0.109 | sotrastaurin -0.001 | alvocidib 0.112 | Tubastatin A 0.002 | [1] 0.023 | defactinib 0.079 | rucaparib 0.06 | [2] 0.003 | encorafenib -0.1 | [3] -0.026

MACO1 (UniProt Q8N5G2)
inactive: saracatinib 0.005 | sotrastaurin 0.023 | alvocidib -0.001 | Tubastatin A 0.032 | [1] -0.044 | defactinib -0.008 | rucaparib 0.076 | [2] -0.005 | encorafenib 0.042 | [3] -0.001

LSM2 (UniProt Q9Y333)
inactive: saracatinib 0.082 | sotrastaurin 0.068 | alvocidib -0.04 | Tubastatin A -0.031 | [1] -0.022 | defactinib 0.013 | rucaparib -0.051 | [2] -0.041 | encorafenib -0.008 | [3] -0.01

LSM6 (UniProt P62312)
inactive: saracatinib 0.113 | sotrastaurin 0.046 | alvocidib -0.064 | Tubastatin A 0.016 | [1] -0.007 | defactinib 0.039 | rucaparib 0.005 | [2] 0.009 | encorafenib -0.063 | [3] -0.041

LSM14B (UniProt Q9BX40)
inactive: saracatinib -0.096 | sotrastaurin -0.116 | alvocidib 0.074 | Tubastatin A 0.169 | [1] 0.129 | defactinib 0.05 | rucaparib 0.187 | [2] 0.075 | encorafenib 0.132 | [3] -0.129

MARCHF5 (UniProt Q9NX47)
inactive: saracatinib 0.047 | sotrastaurin 0.028 | alvocidib -0.075 | Tubastatin A 0.016 | [1] -0.036 | defactinib -0.054 | rucaparib -0.025 | [2] -0.063 | encorafenib 0.042 | [3] -0.02

LYRM2 (UniProt Q9NU23)
inactive: saracatinib 0.005 | sotrastaurin -0.002 | alvocidib -0.042 | Tubastatin A -0.013 | [1] 0.007 | defactinib -0.066 | rucaparib -0.071 | [2] -0.098 | encorafenib 0.013 | [3] -0.008

MAD2L1BP isoform 3 (UniProt Q15013)
inactive: saracatinib -0.054 | sotrastaurin 0.061 | alvocidib -0.058 | Tubastatin A 0.008 | [1] -0.049 | defactinib -0.029 | rucaparib -0.055 | [2] -0.005 | encorafenib -0.032 | [3] 0.014

LYSMD3 (UniProt Q7Z3D4)
inactive: saracatinib 0.022 | sotrastaurin 0.064 | alvocidib -0.15 | Tubastatin A -0.003 | [1] -0.037 | defactinib -0.016 | rucaparib -0.135 | [2] -0.072 | encorafenib 0.067 | [3] 0.028

LSM4 (UniProt Q9Y4Z0)
inactive: saracatinib 0.092 | sotrastaurin 0.003 | alvocidib -0.006 | Tubastatin A -0.014 | [1] 0.062 | defactinib 0.018 | rucaparib -0.036 | [2] -0.074 | encorafenib -0.025 | [3] 0.055

MAN2A2 (UniProt P49641)
inactive: saracatinib 0.028 | sotrastaurin 0.009 | alvocidib -0.019 | Tubastatin A 0.011 | [1] 0.039 | defactinib -0.034 | rucaparib -0.008 | [2] 0.053 | encorafenib 0.018 | [3] 0.045

LYSMD1 (UniProt Q96S90)
inactive: saracatinib 0.002 | sotrastaurin -0.012 | alvocidib -0.078 | Tubastatin A 0.029 | [1] 0.014 | defactinib -0.076 | rucaparib -0.048 | [2] -0.049 | encorafenib 0.007 | [3] 0.014

LRRC8D (UniProt Q7L1W4)
inactive: saracatinib -0.096 | sotrastaurin -0.146 | alvocidib 0.14 | Tubastatin A -0.001 | [1] -0.234 | defactinib 0.163 | rucaparib 0.31 | [2] 0.065 | encorafenib 0.166 | [3] 0.029

MAP1B (UniProt P46821)
inactive: saracatinib -0.002 | sotrastaurin 0.013 | alvocidib 0.048 | Tubastatin A 0.015 | [1] 0.02 | defactinib 0.048 | rucaparib 0.038 | [2] -0.008 | encorafenib 0.017 | [3] 0.024

MAN1A2 (UniProt O60476)
inactive: saracatinib 0.066 | sotrastaurin -0.006 | alvocidib 0.011 | Tubastatin A -0.015 | [1] -0.026 | defactinib 0.097 | rucaparib 0.025 | [2] -0.01 | encorafenib -0.024 | [3] 0.041

LTBR (UniProt P36941)
inactive: saracatinib 0.058 | sotrastaurin 0.088 | alvocidib 0.051 | Tubastatin A 0.072 | [1] 0 | defactinib 0.082 | rucaparib -0.261 | [2] 0.057 | encorafenib 0.002 | [3] 0.01

MAGEB1 (UniProt P43366)
inactive: saracatinib -0.108 | sotrastaurin -0.035 | alvocidib 0.178 | Tubastatin A 0.151 | [1] 0.03 | defactinib 0.306 | rucaparib 0.363 | [2] 0.162 | encorafenib 0.167 | [3] -0.032
